Our source for the binding values is article PMC5114558, “Reader domain specificity and lysine demethylase-4 family function” (Nature Communications, 2016).

By UniProt entry, the sequences of proteins in these tests, tags left out. Residues count along the entry.
UniProt O94953, residues 917-1031: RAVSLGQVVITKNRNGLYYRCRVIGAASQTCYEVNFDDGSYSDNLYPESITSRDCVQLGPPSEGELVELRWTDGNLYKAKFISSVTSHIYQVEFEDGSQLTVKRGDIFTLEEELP
UniProt Q9H3R0, residues 877-991: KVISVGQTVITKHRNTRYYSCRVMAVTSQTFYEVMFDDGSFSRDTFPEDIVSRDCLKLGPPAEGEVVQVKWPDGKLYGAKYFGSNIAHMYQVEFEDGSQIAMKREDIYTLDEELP

No constants are given. Whether binding was seen depends on the method and setting.

The target of test [1] is KDM4B double tudor domain (KDM4B-DTD), His6 tag cleaved, for crystallization (human) (UniProt O94953). The test is described as follows: SEC; size exclusion chromatography, Stokes radius (Supplementary Table 2); both purified.
Test [2] deals with KDM4C double tudor domain (KDM4C-DTD), as used for size exclusion chromatography (human) (UniProt Q9H3R0). The description is as above.

As for “KDM4B double tudor domain (KDM4B-DTD), His6 tag cleaved, for crystallization (from UniProt O94953 917-1031) (domain or fragment)”, in test [1], the binding result is given as “no binding”.

Consider “KDM4C double tudor domain (KDM4C-DTD), as used for size exclusion chromatography (from UniProt Q9H3R0 877-991) (domain or fragment)”, for which, in test [2], the binding result was “no binding”.
